PubChem BioAssay AID1508587 | Peter MacCallum Cancer Centre – 2020
Screen: 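Knockdowns that add to vemurafenib's cut in melanoma glycolysis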 (follow-up of hits). Cell system: human WM266.4 melanoma cells with a BRAF V600 mutation. Knock-down reagent: single siRNA against human genes, 25 nM. Duration: 96 h. Conditions: vemurafenib 300 nM (about IC25), given 48 h after transfection for 48 h. Measurement: 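Medium lactate read by absorbance over DAPI-counted nuclei; ratio with versus without vemurafenib, set against non-targeting siRNA, averaged over 2 replicates; cell number also recorded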. Scale: lactate per cell, drug vs no drug: higher = less drug-induced drop in lactate per cell. Hit rule: 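Enhancer call for any duplex whose drug versus no-drug per-cell lactate ratio is below 0.55 (2 SD beneath non-targeting average); genes confirmed when at least 2 of their 4 duplexes qualify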.
The deposit covers about 1,600 reagents; below is an unselected part. 623 of all reagents (39%) were called active. 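Calls are for each duplex; lactate ratios contain extreme outliers.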 The numbers tell different reagents against one gene apart. Not all columns of the deposit are shown.

MACROH2A1 #1 | lactate per cell, drug vs no drug = 0.68; call = inactive
MACROH2A1 #2 | lactate per cell, drug vs no drug = 0.43; call = active
MACROH2A1 #3 | lactate per cell, drug vs no drug = 0.75; call = inactive
MACROH2A1 #4 | lactate per cell, drug vs no drug = 0.73; call = inactive
ASGR2 #1 | lactate per cell, drug vs no drug = 0.56; call = inactive
ASGR2 #2 | lactate per cell, drug vs no drug = 0.48; call = active
ASGR2 #3 | lactate per cell, drug vs no drug = 0.51; call = active
ASGR2 #4 | lactate per cell, drug vs no drug = 0.52; call = active
MGST3 #1 | lactate per cell, drug vs no drug = 0.59; call = inactive
MGST3 #2 | lactate per cell, drug vs no drug = 0.64; call = inactive
MGST3 #3 | lactate per cell, drug vs no drug = 0.58; call = inactive
MGST3 #4 | lactate per cell, drug vs no drug = 0.53; call = active
FPGS #1 | lactate per cell, drug vs no drug = 0.87; call = inactive
FPGS #2 | lactate per cell, drug vs no drug = 0.5; call = active
FPGS #3 | lactate per cell, drug vs no drug = 0.87; call = inactive
FPGS #4 | lactate per cell, drug vs no drug = 0.64; call = inactive
BRIP1 #1 | lactate per cell, drug vs no drug = 0.52; call = active
BRIP1 #2 | lactate per cell, drug vs no drug = 0.5; call = active
BRIP1 #3 | lactate per cell, drug vs no drug = 0.55; call = inactive
BRIP1 #4 | lactate per cell, drug vs no drug = 0.57; call = inactive
BLK #1 | lactate per cell, drug vs no drug = 0.56; call = inactive
BLK #2 | lactate per cell, drug vs no drug = 0.32; call = active
BLK #3 | lactate per cell, drug vs no drug = 1.06; call = inactive
BLK #4 | lactate per cell, drug vs no drug = 0.73; call = inactive
KCNH8 #1 | lactate per cell, drug vs no drug = 0.52; call = active
KCNH8 #2 | lactate per cell, drug vs no drug = 0.84; call = inactive
KCNH8 #3 | lactate per cell, drug vs no drug = 0.66; call = inactive
KCNH8 #4 | lactate per cell, drug vs no drug = 0.76; call = inactive

Copied from the list:
KCNH8 #4, call → inactive
BLK #3, lactate per cell, drug vs no drug = 1.06
BLK #2, call → active
